According to PMC7819943, “Rice protein-binding microarrays: a tool to detect cis-acting elements near promoter regions in rice”:
The other results are listed elsewhere or left out.

Target: T1, OsSMF1 (Oryza sativa, UniProt Q6ZLB0 1-436)
T1 sequence: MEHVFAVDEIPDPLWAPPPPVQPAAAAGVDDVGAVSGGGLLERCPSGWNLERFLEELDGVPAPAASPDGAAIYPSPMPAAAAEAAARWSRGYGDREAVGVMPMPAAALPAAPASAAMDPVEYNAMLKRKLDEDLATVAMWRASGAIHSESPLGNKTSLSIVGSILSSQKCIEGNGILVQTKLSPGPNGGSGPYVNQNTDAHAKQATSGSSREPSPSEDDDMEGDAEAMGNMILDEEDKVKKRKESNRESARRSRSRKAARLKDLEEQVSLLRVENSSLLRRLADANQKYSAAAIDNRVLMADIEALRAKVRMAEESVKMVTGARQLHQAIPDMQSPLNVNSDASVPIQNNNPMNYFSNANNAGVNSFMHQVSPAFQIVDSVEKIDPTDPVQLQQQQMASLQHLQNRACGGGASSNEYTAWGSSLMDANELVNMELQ
Test: protein-binding microarray (RPBM); PBS, 2% BSA, 51.3 ng/ul salmon testes DNA, 50 uM zinc acetate, 200 nM TF, 25 C, 1 h; high values mean tight binding
Details: protein: recombinant; tags: N-terminal polyhistidine and DsRed monomer fusion (pET32a); chain copies: 2; label: CyDye5-dUTP incorporated in the synthesized complementary strand; 3' TTTTT single-stranded linker to array surface; dsDNA, one strand shown
In short: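 An Axon 4000B scanner gave the binding signal as per-feature fluorescence intensity in arbitrary units. This followed washing of a custom Agilent array that had been incubated for 1 h at 25 °C with 200 nM protein in PBS, 2% BSA, salmon testes DNA and 50 µM zinc acetate. The proteins were transcription factors fused at the N-terminus to polyhistidine and DsRed, expressed in E. coli BL21-CodonPlus and purified on Ni–NTA.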

Row | Sequence | binding signal
1 | TAAAAGAAAATAGGATATATGAGGTGGATTTTGTGCACACCGGAGTCACCTAGTGCAG | 4400 fluorescence intensity (a.u.)
2 | TTTCATGCGTTCCAAGTTGTCATTACTCCTTTGTACTCTCCGGAGTCACCTAGTGCAG | 3240 fluorescence intensity (a.u.)
3 | CGGAATTGTTTCACTCGTTTAAATCGAGTGTTGTTTCACCCGGAGTCACCTAGTGCAG | 12500 fluorescence intensity (a.u.)
4 | TAAGAGCTATTGGAATACGTGTAATAAACCTTTTCGACTTCGGAGTCACCTAGTGCAG | 3600 fluorescence intensity (a.u.)
5 | TCCCTTGACGGTTTTGGCTGACGTGGCGCCTAGGTGGCTACGGAGTCACCTAGTGCAG | 30000 fluorescence intensity (a.u.)
6 | AAAATAATGGGGCTCACATGGGTCCACATGTCGGTCTCACCGGAGTCACCTAGTGCAG | 3190 fluorescence intensity (a.u.)
7 | GCTCATCCATGATTCCACCGTGGCAGGAACTGCAGGTGTACGGAGTCACCTAGTGCAG | 5780 fluorescence intensity (a.u.)
8 | CGAAGACAATTCAGCAGCAGTAACAATCATTTGAACCATACGGAGTCACCTAGTGCAG | 37000 fluorescence intensity (a.u.)
9 | TTTTGACACCGTGATGGGCACCTCCCTACCATTGGGCCCTCGGAGTCACCTAGTGCAG | 21700 fluorescence intensity (a.u.)
10 | GCTCCTGCGCGGAGTCTCCGTGGACACCTCTCCTCCTCCCCGGAGTCACCTAGTGCAG | 3670 fluorescence intensity (a.u.)
11 | ACAGGAAACACCTCATGACGGAGCAGTCACCAGTCAGCTGCGGAGTCACCTAGTGCAG | 5000 fluorescence intensity (a.u.)
12 | TTACTTCCATCGCAACGACATTGCTTGCTACGTCACATGCCGGAGTCACCTAGTGCAG | 5980 fluorescence intensity (a.u.)
13 | GCTGAGTTAGCTGCCACGTCAGCTAGGGGATCGGCCCGGCCGGAGTCACCTAGTGCAG | 16100 fluorescence intensity (a.u.)
14 | GCAACCCAAATGGAGTACGCTACGTCGTCAGTCGCCACTACGGAGTCACCTAGTGCAG | 3990 fluorescence intensity (a.u.)
15 | GACGACCTCCGCCGGCTGCACCCGGACGTCACCATCGTGTCGGAGTCACCTAGTGCAG | 3450 fluorescence intensity (a.u.)
16 | CAAGCAGTCATATGAGTCAAGGAAGCAGATGACACAAACTCGGAGTCACCTAGTGCAG | 3930 fluorescence intensity (a.u.)
17 | GCGTCATCATGACATGCCACGTCAGCACATGGAGCGGGTTCGGAGTCACCTAGTGCAG | 26100 fluorescence intensity (a.u.)
18 | GAGGTTCAGGCAAAGGCATCTTGGTGACAGATTCCATCTGCGGAGTCACCTAGTGCAG | 3710 fluorescence intensity (a.u.)
19 | ACTAGTCCACTGTTCGGGAATGATCCAATTATTTATTTGTCGGAGTCACCTAGTGCAG | 27600 fluorescence intensity (a.u.)
20 | TACTTTGAATCTATGTCCATTTGCTGAGCAGGTACCTTTGCGGAGTCACCTAGTGCAG | 3430 fluorescence intensity (a.u.)
21 | CCTTCGTGCGTGGCGTGAGTTGGAATCCTAGAAAAGATCGCGGAGTCACCTAGTGCAG | 3200 fluorescence intensity (a.u.)

Row | Sequence | binding signal
22 | GTGTCACTCGTGTAGTAGGATGGCAATGGGGCGGGTCGGGCGGAGTCACCTAGTGCAG | 4250 fluorescence intensity (a.u.)
23 | TTACTGATGCGGTGATGCCGATATGATATTTGTCCATCTTCGGAGTCACCTAGTGCAG | 3310 fluorescence intensity (a.u.)
24 | TCATGCGCGAGGGACGATCTGGCCGTCCACGTGTCCCAGCCGGAGTCACCTAGTGCAG | 17200 fluorescence intensity (a.u.)
25 | GGCACGCGTGCGGATCCTGCCACGTAGCCATGGGGCCCACCGGAGTCACCTAGTGCAG | 11900 fluorescence intensity (a.u.)
26 | CGAATTATTACGGCCATCCGTAGTCACCACCTCCTTTGACCGGAGTCACCTAGTGCAG | 3540 fluorescence intensity (a.u.)
27 | AATTTGTATTCAATGCTTCATACACGTGTCCAATGATTTACGGAGTCACCTAGTGCAG | 6390 fluorescence intensity (a.u.)
28 | TTTCCCCGGTGGATCGTGTTCGGACACGTCGCGGCCCCTCCGGAGTCACCTAGTGCAG | 6200 fluorescence intensity (a.u.)
29 | TTGGCGCCTCCATCAACCGTCCACGTCGTCTTCGGCCTCACGGAGTCACCTAGTGCAG | 4560 fluorescence intensity (a.u.)
30 | GAACTAGACGAACAGTATAAATCCGGGTTCGAGGGTTCAACGGAGTCACCTAGTGCAG | 8130 fluorescence intensity (a.u.)
31 | TCGGGATCCGGCCTTACCAGGGGCACCGCCGCCGACGCCGCGGAGTCACCTAGTGCAG | 18700 fluorescence intensity (a.u.)
32 | CTCCTCAGTTCTCAACATGTGGGCCGAATTCTTTACTGTGCGGAGTCACCTAGTGCAG | 3990 fluorescence intensity (a.u.)
33 | GTAAAGAATGTCTCATCATCATCGGTCCCTTGTCCGTTGTCGGAGTCACCTAGTGCAG | 4130 fluorescence intensity (a.u.)
34 | ACATCTCGTCCACGCTTAGTCATCAATATAGCAATATAAACGGAGTCACCTAGTGCAG | 3460 fluorescence intensity (a.u.)
35 | TTATTACTATCGCCACGTCTCTCCCGGCTCCCTCTATTTTCGGAGTCACCTAGTGCAG | 6380 fluorescence intensity (a.u.)
36 | AAAATAGTGGAAAGGTATATACCTCGATCTTCATGTCGAGCGGAGTCACCTAGTGCAG | 3340 fluorescence intensity (a.u.)
37 | ATAGTACAATCGTAGTGTAATTACACTGTAACTTGCATGTCGGAGTCACCTAGTGCAG | 3300 fluorescence intensity (a.u.)
38 | AATTTGCGTGCGCTGCTGAGGTCAGAGGGAGACAGATTGGCGGAGTCACCTAGTGCAG | 3420 fluorescence intensity (a.u.)
39 | CTAACACCGACCCCTTTACCATGTTTGCATCACCACCGGACGGAGTCACCTAGTGCAG | 3730 fluorescence intensity (a.u.)
40 | TAGTACCAAAGTATTTGTGTGTCACTATGATGTCCTGCCTCGGAGTCACCTAGTGCAG | 6010 fluorescence intensity (a.u.)
41 | ACCGCTCCTCCTCCTCCTCGTCGGTAGGGGCGTGTGTGCGCGGAGTCACCTAGTGCAG | 3280 fluorescence intensity (a.u.)
42 | TGCAGAACGGAGTAATTTCTTACAGATCATCCTGTTTCTGCGGAGTCACCTAGTGCAG | 3770 fluorescence intensity (a.u.)

2 entries from above in another layout.
Row	Sequence	binding signal
33	GTAAAGAATGTCTCATCATCATCGGTCCCTTGTCCGTTGTCGGAGTCACCTAGTGCAG	4130 fluorescence intensity (a.u.)
34	ACATCTCGTCCACGCTTAGTCATCAATATAGCAATATAAACGGAGTCACCTAGTGCAG	3460 fluorescence intensity (a.u.)
